No constants are given. Whether binding was seen depends on the method and setting. In cells and extracts the contact can be indirect. Some entries that bind do so weakly or less than the wild type. Where a sequence is shown, tags or fusion partners need not be part of it.
What was measured:
[1] = molecular target: T1, mouse full-length endomucin (FL EMCN), Myc- and mCherry-tagged (mouse) (UniProt Q9R0H2); assay: co-IP; membrane proteins of HRECs (endogenous hEMCN knocked down by siRNA) expressing Myc-tagged mEMCN constructs; solubilisation buffer 50 mM Tris-HCl, 100 mM NaCl, 5 mM EDTA, 0.5% Triton-X 100, 0.5% NP-40, pH 7.5; IP with mouse anti-Myc overnight at 4 °C, mouse IgG as control; blot for VEGFR2 and Myc; VEGFR2 intensity normalised to Myc on beads and compared to FL mEMCN; FL EMCN also in CRISPR control and COSMC knockout HRECs (Figure 4D)
T1 sequence: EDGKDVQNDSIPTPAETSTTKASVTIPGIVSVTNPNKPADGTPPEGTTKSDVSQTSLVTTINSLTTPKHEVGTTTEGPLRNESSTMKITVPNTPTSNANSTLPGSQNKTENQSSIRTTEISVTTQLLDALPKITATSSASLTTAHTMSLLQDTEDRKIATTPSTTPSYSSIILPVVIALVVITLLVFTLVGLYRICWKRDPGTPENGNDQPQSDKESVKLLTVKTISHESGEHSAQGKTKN

The chains behind the UniProt entries cited, without tags or fusion partners. Residues count along the entry.
UniProt P35968, residues 20-1356: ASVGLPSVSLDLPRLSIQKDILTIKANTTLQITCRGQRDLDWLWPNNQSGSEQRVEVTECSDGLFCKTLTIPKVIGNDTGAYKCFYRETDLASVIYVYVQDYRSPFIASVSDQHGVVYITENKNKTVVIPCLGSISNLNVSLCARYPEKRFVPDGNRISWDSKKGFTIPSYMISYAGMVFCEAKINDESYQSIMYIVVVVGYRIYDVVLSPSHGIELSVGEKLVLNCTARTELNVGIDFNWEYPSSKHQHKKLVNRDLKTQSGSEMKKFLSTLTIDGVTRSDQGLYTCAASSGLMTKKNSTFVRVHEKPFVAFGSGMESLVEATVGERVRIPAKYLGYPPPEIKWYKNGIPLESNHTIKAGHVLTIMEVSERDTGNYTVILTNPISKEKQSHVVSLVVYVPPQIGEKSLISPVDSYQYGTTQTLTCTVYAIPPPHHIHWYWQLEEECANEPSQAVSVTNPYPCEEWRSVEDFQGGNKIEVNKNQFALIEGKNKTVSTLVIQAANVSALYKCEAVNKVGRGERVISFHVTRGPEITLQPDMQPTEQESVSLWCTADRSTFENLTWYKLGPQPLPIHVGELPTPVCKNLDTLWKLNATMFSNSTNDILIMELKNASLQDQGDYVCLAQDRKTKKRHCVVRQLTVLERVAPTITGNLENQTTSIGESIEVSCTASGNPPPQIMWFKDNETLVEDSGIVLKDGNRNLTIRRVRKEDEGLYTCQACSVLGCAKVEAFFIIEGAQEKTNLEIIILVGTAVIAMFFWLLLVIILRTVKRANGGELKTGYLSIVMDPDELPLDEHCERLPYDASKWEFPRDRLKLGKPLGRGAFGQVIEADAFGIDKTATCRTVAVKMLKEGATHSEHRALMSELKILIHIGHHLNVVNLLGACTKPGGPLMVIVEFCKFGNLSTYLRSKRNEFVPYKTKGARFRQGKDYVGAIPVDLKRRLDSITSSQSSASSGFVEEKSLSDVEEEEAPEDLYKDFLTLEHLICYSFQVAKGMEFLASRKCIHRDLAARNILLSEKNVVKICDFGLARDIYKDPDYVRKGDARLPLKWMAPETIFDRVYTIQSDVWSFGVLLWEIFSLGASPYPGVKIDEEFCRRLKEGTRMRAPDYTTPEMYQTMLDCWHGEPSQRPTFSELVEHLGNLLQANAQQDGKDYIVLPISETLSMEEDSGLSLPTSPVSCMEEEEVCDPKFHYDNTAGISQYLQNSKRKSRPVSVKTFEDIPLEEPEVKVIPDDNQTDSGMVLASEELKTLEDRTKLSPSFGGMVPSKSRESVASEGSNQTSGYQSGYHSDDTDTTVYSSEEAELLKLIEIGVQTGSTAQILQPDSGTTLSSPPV

[2] = molecular target: T2, N-Mut: Δ21-121 EMCN with the two N-glycosylation sites mutated (N127A and N131A), Myc-tagged (mouse) (UniProt Q9R0H2); assay: as above
T2 sequence: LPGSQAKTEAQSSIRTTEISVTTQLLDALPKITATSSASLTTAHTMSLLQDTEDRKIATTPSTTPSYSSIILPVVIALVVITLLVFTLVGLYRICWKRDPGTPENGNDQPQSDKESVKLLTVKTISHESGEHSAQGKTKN

- binding [1]: binds
- binding [2]: no binding
Substance: vascular endothelial growth factor receptor 2 (VEGFR2) (from UniProt P35968 20-1356)
